Assay results as given in US7589123B2, “Chemical compounds” (Phytopharm PLC, priority 2006, dated 2009).
At least one structure is not confirmed: it was looked up by name or label, or the drawing left a doubt.

System: ovalbumin-sensitised mice
Assay: Ovalbumin-sensitised mice, a chronic model of asthma in vivo (Assay 8)
Details: for methacholine-induced increase in penH (enhanced pause): day 54, methacholine challenge 50 mg/kg; for methacholine-induced increase in penH (enhanced pause) / eosinophil infiltration into the lung / IL-13 concentrations in the BAL / amount of lung remodelling (histopathology grading): oral gavage 20 days: compound 2 3, compound 32 30, budesonide 1, montelukast 10 mg/kg/day; for eosinophil infiltration into the lung: day 55, BAL cytospins; for IL-13 concentrations in the BAL / amount of lung remodelling (histopathology grading) / IL-4 concentration in the BAL: day 55; for IL-4 concentration in the BAL: oral gavage 20 days: compound 32 30, budesonide 1, montelukast 10 mg/kg/day
Description: Mice (BALB/c from Harlan-Olac) were sensitised to ovalbumin using two interperitoneal injections of ovalbumin (10 μg) and alum (200 μl) on day 1 and 14 followed by a 20 min, daily exposure to a ovalbumin aerosol (5%) on days 19-23 and then a thrice weekly 20 min, exposure to a ovalbumin aerosol (5%) on days 24-55. […] On day 54, mice were placed in BUXCO four chamber whole body plethysmographs and breathing-associated pressure changes were recorded which were then used to calculate enhanced pause (penH), a measurement of airways resistance, in response to a methacholine challenge.
On day 55 the mice were killed and brochoalveolar lavage (BAL) fluid was collected and cytospins prepared to measure eosinophil infiltration. In addition, concentrations of interleukin-4 (IL-4) and interleukin-13 (IL-13) were measured in the BAL fluid. Furthermore, lung samples were taken, examined by a histopathologist and scored using a grading system to describe the degree of lung remodelling.

Structure (SMILES): CCCC1O[C@@H]2C[C@H]3[C@@H]4CCC5=CC(=O)C=C[C@]5(C)[C@H]4[C@@H](O)C[C@]3(C)[C@]2(C(=O)CO)O1 (stereo partly shown) [budesonide]
- methacholine-induced increase in penH (enhanced pause): did not decrease
- eosinophil infiltration into the lung: reduced
- IL-13 concentrations in the BAL: reduced
- amount of lung remodelling (histopathology grading): reduced
- IL-4 concentration in the BAL: reduced

Structure (SMILES): CC(C)(O)c1ccccc1CC[C@@H](SCC1(CC(=O)O)CC1)c1cccc(/C=C/c2ccc3ccc(Cl)cc3n2)c1 [montelukast]
- methacholine-induced increase in penH (enhanced pause): did not decrease
- eosinophil infiltration into the lung: reduced
- IL-13 concentrations in the BAL: reduced
- amount of lung remodelling (histopathology grading): reduced
- IL-4 concentration in the BAL: reduced
